Test results taken from PMC4211646.
No constants are given. Whether binding was seen depends on the method and setting. Binding can be weak; no strength is given.

Protein sequences, listed by entry. Tags and fused reporters are not part of them. Lines headed by an entry give the natural chain unless they say otherwise; changes in a name come on top.
UniProt B8H092: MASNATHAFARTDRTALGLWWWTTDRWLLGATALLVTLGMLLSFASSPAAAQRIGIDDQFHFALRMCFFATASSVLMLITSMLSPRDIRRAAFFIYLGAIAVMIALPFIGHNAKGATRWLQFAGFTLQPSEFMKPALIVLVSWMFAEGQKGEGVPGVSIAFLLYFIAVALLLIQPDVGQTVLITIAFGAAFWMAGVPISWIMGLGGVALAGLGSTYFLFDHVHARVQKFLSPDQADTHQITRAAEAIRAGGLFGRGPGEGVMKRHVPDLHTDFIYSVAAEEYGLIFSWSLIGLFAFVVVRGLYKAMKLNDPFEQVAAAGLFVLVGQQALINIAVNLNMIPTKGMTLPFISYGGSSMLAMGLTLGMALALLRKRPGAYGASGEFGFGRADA
UniProt B8GX61: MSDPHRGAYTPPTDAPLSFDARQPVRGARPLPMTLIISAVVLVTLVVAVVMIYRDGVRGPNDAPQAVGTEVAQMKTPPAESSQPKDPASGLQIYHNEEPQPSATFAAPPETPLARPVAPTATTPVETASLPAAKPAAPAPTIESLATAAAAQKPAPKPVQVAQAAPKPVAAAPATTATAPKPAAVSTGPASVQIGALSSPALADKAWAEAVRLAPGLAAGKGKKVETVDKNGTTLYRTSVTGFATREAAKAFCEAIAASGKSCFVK

Biological target: FtsW (Caulobacter crescentus) (UniProt B8H092)
Test: two-hybrid; bacterial two-hybrid (adenylate cyclase T25 and T18 fusions) in E. coli BTH101; T25 fusion from the low-copy plasmid pKT25; colonies from LB restruck on MacConkey agar with maltose, red streaks are positive

binding: binds
Substance: FtsN (from UniProt B8GX61)
